Our source for the IC50 values is patent publication US20040024033A1 (priority 1998, published 2004).

The term IC50 denotes the concentration at which inhibition is half-maximal.

The assay deals with A549 (Lung). Kind of assay: Antiproliferative assay, A549. The format is cell-based. The following applies: Homo sapiens, 120 h, 5 d exposure, mean ± SD, read-out: IC50-values for growth inhibition. The procedure: Antiproliferative assays are performed as previously described (Int. J. Cancer 43, 851-6 (1989)). Briefly, cells are seeded at 1.5×10^3 cells/well into 96-well microtiter plates and incubated overnight. Compounds are added in serial dilutions on day 1. The plates are then incubated for an additional 2 to 5 days, allowing for at least one cell doubling (cell line dependent), after which the cells are fixed with 3.3% v/v glutaraldehyde, washed with water and stained with 0.05% w/v methylene blue. After washing, the dye is eluted with 3% V/V HCl and the optical density measured at 665 nm with a SpectraMax 340 (Bucherer, Basel, Switzerland). IC50 values are determined by a computerized system (SoftPro, Bucherer, Basel, Switzerland) using the formula (OD test−OD start)/(OD control−OD start)×100. IC50 is defined as the drug concentration which leads to 50% of cells per well compared to control cultures (100%) at the end of incubation period.

As to `CC(=O)O[C@H]1C(=O)[C@@]2(C)[C@H]([C@H](OC(=O)c3ccccc3)[C@]3(O)C[C@H](OC(=O)[C@H](O)[C@@H](NC(=O)c4ccccc4)c4ccccc4)C(C)=C1C3(C)C)[C@]1(OC(C)=O)CO[C@@H]1C[C@@H]2O` [paclitaxel], the IC50 was 3.75 ± 0.92 nM.
